No constants are given. Whether binding was seen depends on the method and setting. In cells and extracts the contact can be indirect. Some results given as binding are weak or reduced against the parent protein; the word gives no strength.
Target: HPV16-E7, 3xMYC-tagged (human papillomavirus 16) (UniProt P03129)
Test: co-IP; U2OS transfected with 3xMYC-tagged E7; 24 h 1 umol/L MG-132; lysate on anti-MYC agarose beads 2 h at 4 C; immunoblot

Amino acid sequences for entries named in this document (tags omitted).
UniProt P03129: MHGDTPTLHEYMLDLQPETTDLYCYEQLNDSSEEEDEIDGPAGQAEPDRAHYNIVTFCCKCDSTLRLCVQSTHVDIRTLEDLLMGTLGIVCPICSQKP

B1: pRB, endogenous in U2OS (protein, UniProt P06400 1-928)
chain: MPPKTPRKTAATAAAAAAEPPAPPPPPPPEEDPEQDSGPEDLPLVRLEFEETEEPDFTALCQKLKIPDHVRERAWLTWEKVSSVDGVLGGYIQKKKELWGICIFIAAVDLDEMSFTFTELQKNIEISVHKFFNLLKEIDTSTKVDNAMSRLLKKYDVLFALFSKLERTCELIYLTQPSSSISTEINSALVLKVSWITFLLAKGEVLQMEDDLVISFQLMLCVLDYFIKLSPPMLLKEPYKTAVIPINGSPRTPRRGQNRSARIAKQLENDTRIIEVLCKEHECNIDEVKNVYFKNFIPFMNSLGLVTSNGLPEVENLSKRYEEIYLKNKDLDARLFLDHDKTLQTDSIDSFETQRTPRKSNLDEEVNVIPPHTPVRTVMNTIQQLMMILNSASDQPSENLISYFNNCTVNPKESILKRVKDIGYIFKEKFAKAVGQGCVEIGSQRYKLGVRLYYRVMESMLKSEEERLSIQNFSKLLNDNIFHMSLLACALEVVMATYSRSTSQNLDSGTDLSFPWILNVLNLKAFDFYKVIESFIKAEGNLTREMIKHLERCEHRIMESLAWLSDSPLFDLIKQSKDREGPTDHLESACPLNLPLQNNHTAADMYLSPVRSPKKKGSTTRVNSTANAETQATSAFQTQKPLKSTSLSLFYKKVYRLAYLRLNTLCERLLSEHPELEHIIWTLFQHTLQNEYELMRDRHLDQIMMCSMYGICKVKNIDLKFKIIVTAYKDLPHAVQETFKRVLIKEEEYDSIIVFYNSVFMQRLKTNILQYASTRPPTLSPIPHIPRSPYKFPSSPLRIPGGNIYISPLKSPYKISEGLPTPTKMTPRSRILVSIGESFGTSEKFQKINQMVCNSDRVLKRSAEGSNPPKPLKKLRFDIEGSDEADGSKHLPGESKFQQKLAEMTSTRTRMQKQKMNDSMDTSNKEEK
binding: binds
